In patent US20220074941A1, “HSP90 COMBINATION THERAPY” (Sloan-Kettering Institute for Cancer Research, priority 2011, published 2022):

Key:
[1] = tested on: Hsp90 complexes in K562 cell extract; assay: Nano-LC-MS/MS of PU-beads pull-downs; format: binding; settings: for MAXIMUM matched peptides: maximum over fractions JA01-JA14; for Total fmol: protein isolated in PU-beads pull-downs, Waters Xevo QTof MS; for Number of Assigned Spectra, K562 Prep 1 / Number of Assigned Spectra, K562 Prep 2: protein identified in PU-beads pull-down of K562 extract, QSTAR-Elite QTof MS
In short: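 Proteins were identified by data-dependent nano LC-MS/MS (QTof, ESI) and Mascot searching (p<0.05), then reported as spectral counts and coverage via Scaffold. Inputs were PU-bead versus control-bead pull-downs from lysate pre-cleared with control beads overnight at 4 °C, eluted by boiling in 2% SDS.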

[2] = tested on: Hsp90 complexes in Mia-PaCa-2 cell extract; assay: Nano-LC-MS/MS of PU-beads pull-downs; format: binding, human; settings: protein identified in PU-beads pull-down of Mia-Paca 2 extract; QSTAR-Elite QTof MS
Experimental: Lysates prepared as mentioned above were first pre-cleaned by incubation with control beads overnight at 4° C. […] Beads were washed with lysis buffer, proteins eluted by boiling in 2% SDS, separated on a denaturing gel and Coomassie stained according to manufacturer's procedure (Biorad). […] Analyses of the batch purified pools were done using a QSTAR-Elite hybrid quadrupole time-of-flight mass spectrometer (QTof MS) (AB/MDS Sciex), equipped with a nano spray ion source. Peptide mixtures (in 20 μL) are loaded onto a trapping guard column (0.3×5-mm PepMap C18 100 cartridge from LC Packings) using an Eksigent nano MDLC system (Eksigent Technologies, Inc) at a flow rate of 20 μL/min. […] Electrospray ionization (ESI) needle voltage was set at about 1800 V. The mass analyzer is operated in automatic, data-dependent MS/MS acquisition mode, with the threshold set to 10 counts per second of doubly or triply charged precursor ions selected for fragmentation scans. Survey scans of 0.25 sec are recorded from 400 to 1800 amu; up to 3 MS/MS scans are then collected sequentially for the selected precursor ions, recording from 100 to 1800 amu. The collision energy is automatically adjusted in accordance with the m/z value of the precursor ions selected for MS/MS. Selected precursor ions are excluded from repeated selection for 60 sec after the end of the corresponding fragmentation duty cycle. […] One missed tryptic cleavage site was allowed, precursor ion mass tolerance=0.4 Da fragment ion mass tolerance=0.4 Da, protein modifications were allowed for Met-oxide, Cys-acrylamide and N-terminal acetylation. MudPit scoring was typically applied with ‘require bold red’ activated, and using significance threshold score p<0.05. Unique peptide counts (or ‘spectral counts’) and percent sequence coverages for all identified proteins were exported to Scaffold Proteome Software (version 2_06_01, www.proteomesoftware.com) for further bioinformatic analysis (Table 5a). Using output from Mascot, Scaffold validates, organizes, and interprets mass spectrometry data, allowing more easily to manage large amounts of data, to compare samples, and to search for protein modifications.

| Molecule | MAXIMUM matched peptides ([1]; PU-beads pull-down) | Total fmol [1] [fmol] | Number of Assigned Spectra, K562 Prep 1 [1] | Number of Assigned Spectra, K562 Prep 2 [1] | Number of Assigned Spectra, Mia-Paca 2 [2] | also measured |
| --- | --- | --- | --- | --- | --- | --- |
| Epidermal growth factor receptor substrate 15 (protein) AAAAQLSLTQLSSGNPVYEKYYRQVDTGNTGRVLASDAAAFLKKSGLPDLILGKIWDLADTDGKGILNKQEFFVALRLVACAQNGLEVSLSSLNLAVPPPRFHDTSSPLLISGTSAAELPWAVKPEDKAKYDAIFDSLSPVNGFLSGDKVKPVLLNSKLPVDILGRVWELSDIDHDGMLDRDEFAVAMFLVYCALEKEPVPMSLPPALVPPSKRKTWVVSPAEKAKYDEIFLKTDKDMDGFVSGLEVREIFLKTGLPSTLLAHIWSLCDTKDCGKLSKDQFALAFHLISQKLIKGIDPPHVLTPEMIPPSDRASLQKNIIGSSPVADFSAIKELDTLNNEIVDLQREKNNVEQDLKEKEDTIKQRTSEVQDLQDEVQRENTNLQKLQAQKQQVQELLDELDEQKAQLEEQLKEVRKKCAEEAQLISSLKAELTSQESQISTYEEELAKAREELSRLQQETAELEESVESGKAQLEPLQQHLQDSQQEISSMQMKLMEMKDLENHNSQLNWCSSPHSILVNGATDYCSLSTSSSETANLNEHVEGQSNLESEPIHQESPARSSPELLPSGVTDENEVTTAVTEKVCSELDNNRHSKEEDPFNVDSSSLTGPVADTNLDFFQSDPFVGSDPFKDDPFGKIDPFGGDPFKGSDPFASDCFFRQSTDPFATSSTDPFSAANNSSITSVETLKHNDPFAPGGTVVAASDSATDPFASVFGNESFGGGFADFSTLSKVNNEDPFRSATSSSVSNVVITKNVFEETSVKSEDEPPALPPKIGTPTRPCPLPPGKRSINKLDSPDPFKLNDPFQPFPGNDSPKEKDPEIFCDPFTSATTTTNKEADPSNFANFSAYPSEEDMIEWAKRESEREEEQRLARLNQQEQEDLELAIALSKSEISEA | 33 | 20.4881 |  |  |  | Matched Peptides by Fraction JA03 ([1]; PU-beads pull-down, Run1, gel size cut 110-150): 24; Matched Peptides by Fraction JA10 ([1]; PU-beads pull-down, Run2, gel size cut 110-150): 33 |
| Histone-arginine methyltransferase CARM1 (protein, UniProt Q86X55 2-608, looked up) Histone-arginine …: AAAAAAVGPGAGGAGSAVPGGAGPCATVSVFPGARLLTIGDANGEIQRHAEQQALRLEVRAGPDSAGIALYSHEDVCVFKCSVSRETECSRVGKQSFIITLGCNSVLIQFATPNDFCSFYNILKTCRGHTLERSVFSERTEESSAVQYFQFYGYLSQQQNMMQDYVRTGTYQRAILQNHTDFKDKIVLDVGCGSGILSFFAAQAGARKIYAVEASTMAQHAEVLVKSNNLTDRIVVIPGKVEEVSLPEQVDIIISEPMGYMLFNERMLESYLHAKKYLKPSGNMFPTIGDVHLAPFTDEQLYMEQFTKANFWYQPSFHGVDLSALRGAAVDEYFRQPVVDTFDIRILMAKSVKYTVNFLEAKEGDLHRIEIPFKFHMLHSGLVHGLAFWFDVAFIGSIMTVWLSTAPTEPLTHWYQVRCLFQSPLFAKAGDTLSGTCLLIANKRQSYDISIVAQVDQTGSKSSNLLDLKNPFFRYTGTTPSPPPGSHYTSPSENMWNTGSTYNLSSGMAVAGMPTAYDLSSVIASGSSVGHNNLIPLANTGIVNHTHSRMGSIMSTGIVQGSSGAQGSGGGSTSAHYAVNSQFTMGGPAISMASPMSIPTNTMHYGS | 25 | 50.3460 |  |  |  | Matched Peptides by Fraction JA05 ([1]; PU-beads pull-down, Run1, gel size cut 60-80): 22; Matched Peptides by Fraction JA01 ([1]; PU-beads pull-down, Run1, gel size cut >200): 5; Matched Peptides by Fraction JA12 ([1]; PU-beads pull-down, Run2, gel size cut 60-80): 25; Matched Peptides by Fraction JA08 ([1]; PU-beads pull-down, Run2, gel size cut >200): 7 |
| Serine/threonine-protein kinase NLK (protein, UniProt Q9UBE8 1-527, looked up) Serine/threonine-protein …: MSLCGARANAKMMAAYNGGTSAAAAGHHHHHHHHLPHLPPPHLHHHHHPQHHLHPGSAAAVHPVQQHTSSAAAAAAAAAAAAAMLNPGQQQPYFPSPAPGQAPGPAAAAPAQVQAAAAATVKAHHHQHSHHPQQQLDIEPDRPIGYGAFGVVWSVTDPRDGKRVALKKMPNVFQNLVSCKRVFRELKMLCFFKHDNVLSALDILQPPHIDYFEEIYVVTELMQSDLHKIIVSPQPLSSDHVKVFLYQILRGLKYLHSAGILHRDIKPGNLLVNSNCVLKICDFGLARVEELDESRHMTQEVVTQYYRAPEILMGSRHYSNAIDIWSVGCIFAELLGRRILFQAQSPIQQLDLITDLLGTPSLEAMRTACEGAKAHILRGPHKQPSLPVLYTLSSQATHEAVHLLCRMLVFDPSKRISAKDALAHPYLDEGRLRYHTCMCKCCFSTSTGRVYTSDFEPVTNPKFDDTFEKNLSSVRQVKEIIHQFILEQQKGNRVPLCINPQSAAFKSFISSTVAQPSEMPPSPLVWE | 14 | 7.0941 |  |  |  | Matched Peptides by Fraction JA06 ([1]; PU-beads pull-down, Run1, gel size cut 40-60): 7; Matched Peptides by Fraction JA13 ([1]; PU-beads pull-down, Run2, gel size cut 40-60): 14 |
| PANK4 (protein, UniProt Q9NVE7 2-773, looked up) 4'-phosphopantetheine …: AECGASGSGSSGDSLDKSITLPPDEIFRNLENAKRFAIDIGGSLTKLAYYSTVQHKVAKVRSFDHSGKDTEREHEPPYEISVQEEITARLHFIKFENTYIEACLDFIKDHLVNTETKVIQATGGGAYKFKDLIEEKLRLKVDKEDVMTCLIKGCNFVLKNIPHEAFVYQKDSDPEFRFQTNHPHIFPYLLVNIGSGVSIVKVETEDRFEWVGGSSIGGGTFWGLGALLTKTKKFDELLHLASRGQHSNVDMLVRDVYGGAHQTLGLSGNLIASSFGKSATADQEFSKEDMAKSLLHMISNDIGQLACLHARLHSLDRVYFGGFFIRGHPVTMRTITYSINFFSKGEVQALFLRHEGYLGAIGAFLKGAEQDNPNQYSWGENYAGSSGLMSASPELGPAQRARSGTFDLLEMDRLERPLVDLPLLLDPPSYVPDTVDLTDDALARKYWLTCFEEALDGVVKRAVASQPDSVDAAERAEKFRQKYWNKLQTLRQQPFAYGTLTVRSLLDTREHCLNEFNFPDPYSKVKQRENGVALRCFPGVVRSLDALGWEERQLALVKGLLAGNVFDWGAKAVSAVLESDPYFGFEEAKRKLQERPWLVDSYSEWLQRLKGPPHKCALIFADNSGIDIILGVFPFVRELLLRGTEVILACNSGPALNDVTHSESLIVAERIAGMDPVVHSALQEERLLLVQTGSSSPCLDLSRLDKGLAALVRERGADLVVIEGMGRAVHTNYHAALRCESLKLAVIKNAWLAERLGGRLFSVIFKYEVPAE |  |  | 7 | 7 | 0 |  |
| PHKB (protein, UniProt Q93100 2-1093, looked up) Phosphorylase b kinase …: AGAAGLTAEVSWKVLERRARTKRSGSVYEPLKSINLPRPDNETLWDKLDHYYRIVKSTLLLYQSPTTGLFPTKTCGGDQKAKIQDSLYCAAGAWALALAYRRIDDDKGRTHELEHSAIKCMRGILYCYMRQADKVQQFKQDPRPTTCLHSVFNVHTGDELLSYEEYGHLQINAVSLYLLYLVEMISSGLQIIYNTDEVSFIQNLVFCVERVYRVPDFGVWERGSKYNNGSTELHSSSVGLAKAALEAINGFNLFGNQGCSWSVIFVDLDAHNRNRQTLCSLLPRESRSHNTDAALLPCISYPAFALDDEVLFSQTLDKVVRKLKGKYGFKRFLRDGYRTSLEDPNRCYYKPAEIKLFDGIECEFPIFFLYMMIDGVFRGNPKQVQEYQDLLTPVLHHTTEGYPVVPKYYYVPADFVEYEKNNPGSQKRFPSNCGRDGKLFLWGQALYIIAKLLADELISPKDIDPVQRYVPLKDQRNVSMRFSNQGPLENDLVVHVALIAESQRLQVFLNTYGIQTQTPQQVEPIQIWPQQELVKAYLQLGINEKLGLSGRPDRPIGCLGTSKIYRILGKTVVCYPIIFDLSDFYMSQDVFLLIDDIKNALQFIKQYWKMHGRPLFLVLIREDNIRGSRFNPILDMLAALKKGIIGGVKVHVDRLQTLISGAVVEQLDFLRISDTEELPEFKSFEELEPPKHSKVKRQSSTPSAPELGQQPDVNISEWKDKPTHEILQKLNDCSCLASQAILLGILLKREGPNFITKEGTVSDHIERVYRRAGSQKLWLAVRYGAAFTQKFSSSIAPHITTFLVHGKQVTLGAFGHEEEVISNPLSPRVIQNIIYYKCNTHDEREAVIQQELVIHIGWIISNNPELFSGMLKIRIGWIIHAMEYELQIRGGDKPALDLYQLSPSEVKQLLLDILQPQQNGRCWLNRRQIDGSLNRTPTGFYDRVWQILERTPNGIIVAGKHLPQQPTLSDMTMYEMNFSLLVEDTLGNIDQPQYRQIVVELLMVVSIVLERNPELEFQDKVDLDRLVKEAFNEFQKDQSRLKEIEKQDDMTSFYNTPPLGKRGTCSYLTKAVMNLLLEGEVKPNNDDPCLIS |  |  | 10 | 3 | 9 |  |
